Reference: PMC7260847
The exact form of at least one protein or probe is not confirmed. At least one result comes from cells or an extract, where the contact may be indirect.

System: NCgl0581 (LysR-type transcriptional regulator of serE)
Test: EMSA
Conditions: Viagene non-radioactive EMSA kit with biotin probes, per manufacturer's instructions; pH and temperature not stated; protein in an extract

AAACAGCCAACTATAGTTAAGTAATA (double strand) [BIO-JNZXM-TP/BIO-JNZXM-BM (serE upstream region probe)]
binding result: binds
